In assay [1] the target is T1, hTRβ ligand binding domain (hTRβ LBD), in vitro translated, as used in the GST-GRIP1 binding and peptide competition assays (human) (UniProt P10828).
T1 sequence ([35S]-methionine labelled (in vitro translated), looked up): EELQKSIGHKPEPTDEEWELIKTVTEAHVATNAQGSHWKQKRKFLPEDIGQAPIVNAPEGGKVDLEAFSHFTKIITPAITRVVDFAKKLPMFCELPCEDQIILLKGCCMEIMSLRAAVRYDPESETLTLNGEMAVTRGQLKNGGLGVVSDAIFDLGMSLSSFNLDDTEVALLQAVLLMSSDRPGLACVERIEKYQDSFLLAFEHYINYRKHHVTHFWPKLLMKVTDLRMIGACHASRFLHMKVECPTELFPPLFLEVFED
Kind of assay: GST-GRIP1 (563-767) pull-down of in vitro translated TR.

Chains of the proteins cited; added tags and fusions are not shown. Lines headed by an entry give the natural chain unless they say otherwise; changes in a name come on top. Residues count along the entry.
GST-GRIP1 (GRIP1 amino acids 721-1121) (Q61026, residues 721-1121): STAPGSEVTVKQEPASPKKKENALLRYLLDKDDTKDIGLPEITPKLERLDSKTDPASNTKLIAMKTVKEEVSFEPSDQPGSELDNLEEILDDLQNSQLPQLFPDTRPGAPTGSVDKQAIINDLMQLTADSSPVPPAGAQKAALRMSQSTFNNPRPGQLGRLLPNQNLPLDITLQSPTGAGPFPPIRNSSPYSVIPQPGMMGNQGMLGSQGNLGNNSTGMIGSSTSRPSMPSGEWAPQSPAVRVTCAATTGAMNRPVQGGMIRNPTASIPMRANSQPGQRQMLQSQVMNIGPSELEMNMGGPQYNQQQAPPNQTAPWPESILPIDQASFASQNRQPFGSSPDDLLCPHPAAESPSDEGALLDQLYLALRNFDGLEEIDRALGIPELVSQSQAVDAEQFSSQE
UniProt P19793: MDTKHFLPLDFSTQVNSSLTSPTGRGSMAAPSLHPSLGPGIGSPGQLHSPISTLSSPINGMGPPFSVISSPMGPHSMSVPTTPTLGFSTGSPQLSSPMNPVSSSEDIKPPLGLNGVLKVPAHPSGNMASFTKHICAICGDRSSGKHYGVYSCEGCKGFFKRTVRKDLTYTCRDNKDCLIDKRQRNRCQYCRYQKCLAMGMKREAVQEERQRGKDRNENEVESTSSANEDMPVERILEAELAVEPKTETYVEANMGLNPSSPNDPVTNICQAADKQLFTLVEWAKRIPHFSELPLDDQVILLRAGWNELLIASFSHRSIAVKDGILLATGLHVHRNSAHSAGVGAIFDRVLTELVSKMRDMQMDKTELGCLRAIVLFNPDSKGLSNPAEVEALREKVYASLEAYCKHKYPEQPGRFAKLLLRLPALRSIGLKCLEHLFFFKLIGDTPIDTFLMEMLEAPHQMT

Assay [2] deals with GRIP1 563-767 His6 GST fusion protein (mouse) (UniProt Q61026). Kind of assay: GST-GRIP1 pull-down of in vitro translated TR.
The target of assay [3] is hRXRα, full-length (human) (UniProt P19793). Kind of assay: GST-hTRβ1 pull-down of [35S]-hRXRα.
Assay [4] addresses GST-hRXRα (full-length) (human) (UniProt P19793). Kind of assay: GST-RXR pull-down of TR, data not shown.
Assay [5] has as its target GST-GRIP1 (GRIP1 amino acids 721-1121) (mouse) (UniProt Q61026). The assay is described as follows: GST-GRIP1 pull-down of [35S]-hTRβ1 with T3.

These are yes or no findings as the source states them, for the method shown. For some assays here: In cells and extracts the contact can be indirect. Some binding calls cover weakened binding; strength is not graded here. For some assays here: Where a sequence is shown, tags or fusion partners need not be part of it.

As for “GRIP1 563-767 His6 GST fusion protein (from UniProt Q61026 563-767)”, the binding entry in assay [1] is on record as “binds”.

B1: hTRβ ligand binding domain (hTRβ LBD), in vitro translated, as used in the GST-GRIP1 binding and peptide competition assays (receptor, human, UniProt P10828 202-461, looked up)
chain: EELQKSIGHKPEPTDEEWELIKTVTEAHVATNAQGSHWKQKRKFLPEDIGQAPIVNAPEGGKVDLEAFSHFTKIITPAITRVVDFAKKLPMFCELPCEDQIILLKGCCMEIMSLRAAVRYDPESETLTLNGEMAVTRGQLKNGGLGVVSDAIFDLGMSLSSFNLDDTEVALLQAVLLMSSDRPGLACVERIEKYQDSFLLAFEHYINYRKHHVTHFWPKLLMKVTDLRMIGACHASRFLHMKVECPTELFPPLFLEVFED
modifications: [35S]-methionine labelled (in vitro translated)
As to B1, in assay [2], the binding entry is “binds”.

B2: GST-hTRβ1, full-length, wild type (receptor, human, UniProt P10828 1-461, looked up, not shown: a dimerising Fc or GST)
chain: MTPNSMTENGLTAWDKPKHCPDREHDWKLVGMSEACLHRKSHSERRSTLKNEQSSPHLIQTTWTSSIFHLDHDDVNDQSVSSAQTFQTEEKKCKGYIPSYLDKDELCVVCGDKATGYHYRCITCEGCKGFFRRTIQKNLHPSYSCKYEGKCVIDKVTRNQCQECRFKKCIYVGMATDLVLDDSKRLAKRKLIEENREKRRREELQKSIGHKPEPTDEEWELIKTVTEAHVATNAQGSHWKQKRKFLPEDIGQAPIVNAPEGGKVDLEAFSHFTKIITPAITRVVDFAKKLPMFCELPCEDQIILLKGCCMEIMSLRAAVRYDPESETLTLNGEMAVTRGQLKNGGLGVVSDAIFDLGMSLSSFNLDDTEVALLQAVLLMSSDRPGLACVERIEKYQDSFLLAFEHYINYRKHHVTHFWPKLLMKVTDLRMIGACHASRFLHMKVECPTELFPPLFLEVFED
Turning to B2, the binding entry in assay [3] is “binds”.

B3: hTRβ1 I302R, full-length (receptor, human, UniProt P10828 1-461, looked up)
chain: MTPNSMTENGLTAWDKPKHCPDREHDWKLVGMSEACLHRKSHSERRSTLKNEQSSPHLIQTTWTSSIFHLDHDDVNDQSVSSAQTFQTEEKKCKGYIPSYLDKDELCVVCGDKATGYHYRCITCEGCKGFFRRTIQKNLHPSYSCKYEGKCVIDKVTRNQCQECRFKKCIYVGMATDLVLDDSKRLAKRKLIEENREKRRREELQKSIGHKPEPTDEEWELIKTVTEAHVATNAQGSHWKQKRKFLPEDIGQAPIVNAPEGGKVDLEAFSHFTKIITPAITRVVDFAKKLPMFCELPCEDQRILLKGCCMEIMSLRAAVRYDPESETLTLNGEMAVTRGQLKNGGLGVVSDAIFDLGMSLSSFNLDDTEVALLQAVLLMSSDRPGLACVERIEKYQDSFLLAFEHYINYRKHHVTHFWPKLLMKVTDLRMIGACHASRFLHMKVECPTELFPPLFLEVFED
modifications: [35S]-Met labelled (in vitro translated)
B3: the binding entry in assay [4] is on record as “binds”.

B4: hTRβ1 E457K, full-length (receptor, human, UniProt P10828 1-461, looked up)
chain: MTPNSMTENGLTAWDKPKHCPDREHDWKLVGMSEACLHRKSHSERRSTLKNEQSSPHLIQTTWTSSIFHLDHDDVNDQSVSSAQTFQTEEKKCKGYIPSYLDKDELCVVCGDKATGYHYRCITCEGCKGFFRRTIQKNLHPSYSCKYEGKCVIDKVTRNQCQECRFKKCIYVGMATDLVLDDSKRLAKRKLIEENREKRRREELQKSIGHKPEPTDEEWELIKTVTEAHVATNAQGSHWKQKRKFLPEDIGQAPIVNAPEGGKVDLEAFSHFTKIITPAITRVVDFAKKLPMFCELPCEDQIILLKGCCMEIMSLRAAVRYDPESETLTLNGEMAVTRGQLKNGGLGVVSDAIFDLGMSLSSFNLDDTEVALLQAVLLMSSDRPGLACVERIEKYQDSFLLAFEHYINYRKHHVTHFWPKLLMKVTDLRMIGACHASRFLHMKVECPTELFPPLFLKVFED
modifications: [35S]-Met labelled (in vitro translated)
For B4, in assay [4], the binding entry is “binds”.

B5: hTRβ1 L454R, full-length (receptor, human, UniProt P10828 1-461, looked up)
chain: MTPNSMTENGLTAWDKPKHCPDREHDWKLVGMSEACLHRKSHSERRSTLKNEQSSPHLIQTTWTSSIFHLDHDDVNDQSVSSAQTFQTEEKKCKGYIPSYLDKDELCVVCGDKATGYHYRCITCEGCKGFFRRTIQKNLHPSYSCKYEGKCVIDKVTRNQCQECRFKKCIYVGMATDLVLDDSKRLAKRKLIEENREKRRREELQKSIGHKPEPTDEEWELIKTVTEAHVATNAQGSHWKQKRKFLPEDIGQAPIVNAPEGGKVDLEAFSHFTKIITPAITRVVDFAKKLPMFCELPCEDQIILLKGCCMEIMSLRAAVRYDPESETLTLNGEMAVTRGQLKNGGLGVVSDAIFDLGMSLSSFNLDDTEVALLQAVLLMSSDRPGLACVERIEKYQDSFLLAFEHYINYRKHHVTHFWPKLLMKVTDLRMIGACHASRFLHMKVECPTELFPPRFLEVFED
modifications: [35S]-Met labelled (in vitro translated)
As for B5, in assay [4], the binding result was “binds”.

B6: human thyroid hormone receptor β1 (hTRβ1), full-length 461 amino acids, wild type (receptor, UniProt P10828 1-461, looked up)
chain: MTPNSMTENGLTAWDKPKHCPDREHDWKLVGMSEACLHRKSHSERRSTLKNEQSSPHLIQTTWTSSIFHLDHDDVNDQSVSSAQTFQTEEKKCKGYIPSYLDKDELCVVCGDKATGYHYRCITCEGCKGFFRRTIQKNLHPSYSCKYEGKCVIDKVTRNQCQECRFKKCIYVGMATDLVLDDSKRLAKRKLIEENREKRRREELQKSIGHKPEPTDEEWELIKTVTEAHVATNAQGSHWKQKRKFLPEDIGQAPIVNAPEGGKVDLEAFSHFTKIITPAITRVVDFAKKLPMFCELPCEDQIILLKGCCMEIMSLRAAVRYDPESETLTLNGEMAVTRGQLKNGGLGVVSDAIFDLGMSLSSFNLDDTEVALLQAVLLMSSDRPGLACVERIEKYQDSFLLAFEHYINYRKHHVTHFWPKLLMKVTDLRMIGACHASRFLHMKVECPTELFPPLFLEVFED
modifications: [35S]-Met labelled (in vitro translated)
Regarding B6, the binding entry in assay [5] and in assay [2] was “binds” throughout.

B7: hTRβ1 V284R, full-length (receptor, human, UniProt P10828 1-461, looked up)
chain: MTPNSMTENGLTAWDKPKHCPDREHDWKLVGMSEACLHRKSHSERRSTLKNEQSSPHLIQTTWTSSIFHLDHDDVNDQSVSSAQTFQTEEKKCKGYIPSYLDKDELCVVCGDKATGYHYRCITCEGCKGFFRRTIQKNLHPSYSCKYEGKCVIDKVTRNQCQECRFKKCIYVGMATDLVLDDSKRLAKRKLIEENREKRRREELQKSIGHKPEPTDEEWELIKTVTEAHVATNAQGSHWKQKRKFLPEDIGQAPIVNAPEGGKVDLEAFSHFTKIITPAITRVRDFAKKLPMFCELPCEDQIILLKGCCMEIMSLRAAVRYDPESETLTLNGEMAVTRGQLKNGGLGVVSDAIFDLGMSLSSFNLDDTEVALLQAVLLMSSDRPGLACVERIEKYQDSFLLAFEHYINYRKHHVTHFWPKLLMKVTDLRMIGACHASRFLHMKVECPTELFPPLFLEVFED
modifications: [35S]-Met labelled (in vitro translated)
As for B7, the binding entry in assay [4] was “binds”.

B8: hTRβ1 K306A, full-length (receptor, human, UniProt P10828 1-461, looked up)
chain: MTPNSMTENGLTAWDKPKHCPDREHDWKLVGMSEACLHRKSHSERRSTLKNEQSSPHLIQTTWTSSIFHLDHDDVNDQSVSSAQTFQTEEKKCKGYIPSYLDKDELCVVCGDKATGYHYRCITCEGCKGFFRRTIQKNLHPSYSCKYEGKCVIDKVTRNQCQECRFKKCIYVGMATDLVLDDSKRLAKRKLIEENREKRRREELQKSIGHKPEPTDEEWELIKTVTEAHVATNAQGSHWKQKRKFLPEDIGQAPIVNAPEGGKVDLEAFSHFTKIITPAITRVVDFAKKLPMFCELPCEDQIILLAGCCMEIMSLRAAVRYDPESETLTLNGEMAVTRGQLKNGGLGVVSDAIFDLGMSLSSFNLDDTEVALLQAVLLMSSDRPGLACVERIEKYQDSFLLAFEHYINYRKHHVTHFWPKLLMKVTDLRMIGACHASRFLHMKVECPTELFPPLFLEVFED
modifications: [35S]-Met labelled (in vitro translated)
Regarding B8, in assay [4], the binding result was “binds”.

B9: hTRβ1 K288A, full-length (receptor, human, UniProt P10828 1-461, looked up)
chain: MTPNSMTENGLTAWDKPKHCPDREHDWKLVGMSEACLHRKSHSERRSTLKNEQSSPHLIQTTWTSSIFHLDHDDVNDQSVSSAQTFQTEEKKCKGYIPSYLDKDELCVVCGDKATGYHYRCITCEGCKGFFRRTIQKNLHPSYSCKYEGKCVIDKVTRNQCQECRFKKCIYVGMATDLVLDDSKRLAKRKLIEENREKRRREELQKSIGHKPEPTDEEWELIKTVTEAHVATNAQGSHWKQKRKFLPEDIGQAPIVNAPEGGKVDLEAFSHFTKIITPAITRVVDFAAKLPMFCELPCEDQIILLKGCCMEIMSLRAAVRYDPESETLTLNGEMAVTRGQLKNGGLGVVSDAIFDLGMSLSSFNLDDTEVALLQAVLLMSSDRPGLACVERIEKYQDSFLLAFEHYINYRKHHVTHFWPKLLMKVTDLRMIGACHASRFLHMKVECPTELFPPLFLEVFED
modifications: [35S]-Met labelled (in vitro translated)
For the molecule B9, in assay [4], the binding result is reported as “binds”.

Values taken from patent publication US20060149521A1 (University of California, published 2006).
